PubChem BioAssay AID652259 – Drosophila RNAi Screening Center – 2013

- Test: 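Identify new Wingless signalling regulators in fly cells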 (primary screen)
- Cell system: Drosophila clone 8 imaginal disc epithelial cells
- Reagent: long dsRNA against Drosophila genes
- Challenge: pathway stimulated by co-transfected Wingless expression plasmid
- Measurement: 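Firefly luciferase from a tcf-site Wingless reporter, measured alongside co-transfected Renilla luciferase that tracks transfection; pathway stimulated by a Wingless plasmid; the firefly-to-Renilla ratio is not deposited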
- Reading the numbers: firefly reporter light: higher = more Wg reporter light, before normalisation; Renilla control light: higher = more transfected or surviving cells
- Active means: 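a knock-down is a candidate when at least two out of four statistical tests show it departing from its plate mean; one test alone signals a weak candidate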
- Calls: active = candidate regulator (raises or lowers reporter); inactive = not a candidate
The screen tested about 22,000 reagents; shown is a random part of those that have a named target and a result. Over the whole deposit, 233 (1.1%) are marked active. 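Light values are raw, unnormalised plate reads; the ratio scores behind the reporter calls were not deposited.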 Entries without a mark were called inactive. Names joined by + are all predicted targets of the reagent. Reagent sequences are not shown. Not stated in the record: the amount of reagent, the time to read-out, the dose of the treatment.

Target gene	amplicon	firefly reporter light, replicate 1	firefly reporter light, replicate 2	Renilla control light, replicate 1	Renilla control light, replicate 2
knrl	DRSC11892	9730		3612	
CG3808	DRSC10377	9421		1837	
CG42813	DRSC15939	3286	7619	1332	2274
CG8728	DRSC07251	10507		3288	
Tmx3	DRSC10471	4901		2288	
CG42233	DRSC14328	21834		15863	
CG42233	DRSC15416	20992		18416	
UQCR-Q	DRSC10886	8028		2855	
ctp	DRSC18758	3091	10880	945	1249
CG4627	DRSC06873	4771		1868	
CG42715 (retired record)	DRSC05499	29270		19426	
CG10321	DRSC04061	4140		438	
CG5235	DRSC10494	6259		2908	
CG17834	DRSC02637	7100		1888	
mnd	DRSC11370	7275		1993	
nAChRalpha1	DRSC13664	3111		545	
nAChRalpha1	DRSC13670	3685		371	
nAChRalpha1	DRSC13672	3578		1883	
nAChRalpha1	DRSC17008	24596		16192	
CG13306	DRSC09976	929	7738	729	3184
CG4364	DRSC02742	5111		1659	
CG13531	DRSC04173	2745	7162	728	2380
CG9801	DRSC16568	3741		1280	
CG11791	DRSC14391	3067	6375	1395	1924
Blos3	DRSC09573	4832		1669	
Ac13E	DRSC19325	27712		11424	
Rcd2	DRSC11756	11684		4026	

4 entries from above, limited to “firefly reporter light, replicate 1”.
CG13306 [DRSC09976] = 929
CG4364 [DRSC02742] = 5111
CG13531 [DRSC04173] = 2745
CG9801 [DRSC16568] = 3741

Next reagents follow.
Target gene	amplicon	firefly reporter light, replicate 1	firefly reporter light, replicate 2	Renilla control light, replicate 1	Renilla control light, replicate 2
ppk12	DRSC04086	2708	7104	425	3696
Boh1	DRSC14487	3360	7488	1408	2757
Mov10	DRSC07012	13446		4036	
CG15027	DRSC19608	18112		11258	
CG8870	DRSC16452	10243		1602	
CG3402	DRSC08567	18305		5691	
Or98P	DRSC22948	6.38e5	6.81e5	2.89e5	1.69e5
e(y)2	DRSC19640	17490		8764	
CG43901	DRSC19397	17361		7484	
CG43901	DRSC19652	23737		4929	
CG43901	DRSC19653	23824		10749	
CG43901	DRSC22791	4.97e5	5.09e5	2.08e5	2.37e5
sstn	DRSC10753	6376		3101	
alc	DRSC07062	3600	9619	970	4700
alc	DRSC21464	7.33e5	7.50e5	4.45e5	3.44e5
CG8673	DRSC03105	2249	7538	842	3880
CG6567 + CG42394	DRSC22241	7.82e5	8.67e5	4.09e5	3.95e5
CG43755	DRSC00012	25232		14304	
CG9068	DRSC07329	5472		2800	
SH3PX1	DRSC11139	7824		2891	
CG13332	DRSC06367	8021		3499	
Art6	DRSC16583	16917		3629	
Ho	DRSC14939	7457		2631	
CG11362	DRSC04106	4107	8757	832	2180
CG11362	DRSC22032	7.83e5	7.92e5	3.61e5	3.53e5
CG7365	DRSC10824	7888		2115	
SP	DRSC09664	7489		2586	
ArgRS-m	DRSC14186	12572		3142	
Orc5	DRSC03390	1416	4600	805	2257
timeout	DRSC12950	2517		1130	
timeout	DRSC17078	15850		3531	
timeout	DRSC17079	17739		4635	
timeout	DRSC17080	14189		3884	
timeout	DRSC17081	15051		2165	
timeout	DRSC21535	5.36e5	5.12e5	2.16e5	2.21e5
l(3)mbn	DRSC08793	3131		1816	
Prosbeta1	DRSC07159	5208		2352	
ksr	DRSC12379	16339		3015	
Kdm5	DRSC03133	4517		2317	
CG2736	DRSC04314	10617		4098	
CG17110	DRSC15173	25148		18854	
CG14569	DRSC11730	25797		8757	
Cpr49Ab	DRSC05341	21303		14389	
MrgBP	DRSC06417	3172	5488	571	2016
CG7920	DRSC16346	4736	9096	2241	3680
CG7920	DRSC21594	6.37e5	6.55e5	2.07e5	2.00e5
